Measured values taken from patent publication US20240390520A1, “GENE EDITING OF PCSK9 OR ANGPTL3 AND COMPOSITIONS AND METHODS OF USING SAME FOR TREATMENT OF DISEASE” (Verve Therapeutics, Inc., priority 2021, published 2024).
Some of these results come from one statement about several compounds together.

B1: GA347: cyno ANGPTL3 guide nucleic acid, dosed in NHP as LNP1 (nucleic acid)
guide: AAGATACCTGAATAACTCTCGTTTTAGAGCTAGAAATAGCAAGTTAAAATAAGGCTAGTCCGTTATCAACTTGAAAAAGTGGCACCGAGTCGGTGCTTTT
modifications: chemical modifications; listed as RNA; modified_base 1..3: mod_base = OTHER; note = 2'-O-methyl ribonucleotide; modified_base 21: mod_base = OTHER; modified_base 28..32: mod_base = OTHER; modified_base 34..42: m
notes: cyno ANGPTL3 guide nucleic acid, dosed in NHP as LNP1
B2: GA748: cyno ANGPTL3 spacer-modified guide, second exemplary spacer motif; dosed in NHP as LNP7 (nucleic acid)
guide: B1 guide
modifications: chemically modified; formulated in LNP; listed as DNA; modified_base 1..2: mod_base = OTHER; note = 2'-O-methyl ribonucleotide; modified_base 21: mod_base = OTHER; modified_base 28..32: mod_base = OTHER; modified_base 34..42: m
notes: cyno ANGPTL3 spacer-modified guide, second exemplary spacer motif; dosed in NHP as LNP7
B3: GA749: cyno ANGPTL3 spacer-modified guide, first exemplary spacer motif; dosed in NHP as LNP8 (nucleic acid)
guide: B1 guide
modifications: chemically modified; formulated in LNP; listed as DNA; modified_base 1..2: mod_base = OTHER; note = 2'-O-methyl ribonucleotide; modified_base 21: mod_base = OTHER; modified_base 28..32: mod_base = OTHER; modified_base 34..42: m
notes: cyno ANGPTL3 spacer-modified guide, first exemplary spacer motif; dosed in NHP as LNP8

Tested on: ANGPTL3 gene
Experiment: NHP study: hepatic ANGPTL3 on-target editing, Targeted Amplicon sequencing of liver
Assay type: in vivo, cynomolgus monkey
Settings: cynomolgus monkeys, single IV dose, LNP with mRNA MA079, 15 days post injection

Row | Molecule | liver ANGPTL3 editing (A>N) at position 6 of protospacer
1 | B1 | > 54%
2 | B2 | > 54%
3 | B3 | > 54%
